The list shows a part of the results. These are further read-outs of the screen, such as a control signal, another cell line or another target. No call is given for them. The list favours compounds with an active or inconclusive main result. Potencies come from curve fits of mixed quality, noted in brackets.
Assay: qHTS Assay to Find Inhibitors of Chronic Active B-Cell Receptor Signaling
Settings: ABC-DLBCL IkBa-CBG/CBR reporter, luminescence ratio (green luciferase fused to IkBa over red control in TMD8 lymphoma cells), 4 h
Outline: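 TMD8 human ABC-DLBCL cells with doxycycline-inducible IκBα–green luciferase fusion and unfused red luciferase, in 0.5% FBS medium; compounds up to 46 uM, 4 h at 37C. Green/red luminescence ratio, filter-overlap corrected, fitted to concentration-response curves.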

[1] = measured here: CBR red luminescence, cell number
[2] = measured here: IkBa-CBG green luminescence

Structure (SMILES)	AC50 [1]	AC50 [2]
O=C(CSc1nc(O)cc(=O)[nH]1)N1c2ccccc2Sc2ccccc21	17.8 µM [rising, partial curve, poor fit]	
CCC1=NN(C(=O)c2ccccc2O)C(O)(c2ccccc2)C1 (stereo not drawn)	2.82 µM [falling, full curve]	
CN(C)CCCN(C(=O)CCSc1ccccc1)c1nc2cc3c(cc2s1)OCO3	12.6 µM [falling, partial curve, poor fit]	
COc1cccc(C(=O)NC(=S)Nc2ccc3c4c(cccc24)CC3)c1	3.16 µM [falling, partial curve, poor fit]	
COc1ccc2c(=O)c(-c3cnn(-c4ccccc4)c3)c(C)oc2c1	4.47 µM [rising, full curve]	
COc1ccc(NC(=O)c2nc3nccc(C)n3n2)cc1S(=O)(=O)N1CCOCC1		16.4 µM [falling, partial curve, poor fit]
Fc1ccc(CNCCC(Cc2ccccc2)c2ccco2)cc1 (stereo not drawn)	15.8 µM [falling, single point]	
COc1ccccc1/C=C/C(=O)N1CCOCC1	0.517 µM [falling, partial curve, poor fit]	
Cc1nn(-c2cccc(C(F)(F)F)c2)c(=O)c2noc(C)c12	2.51 µM [rising, partial curve, poor fit]	
Cc1ccc(/C(N)=N/OC(=O)CCCc2ccccc2)cc1	5.62 µM [rising, partial curve, poor fit]	
Cc1cccc(-n2ncc3c(NCCN4CCOCC4)ncnc32)c1	1.41 µM [falling, full curve]	
Cc1c(C(=O)NC(=S)NCC(C)C)oc2ccccc12	14.6 µM [rising, partial curve]	
Cc1ccc2nc(SCC(=O)c3c[nH]c4ccccc34)[nH]c2c1	14.1 µM [falling, partial curve, poor fit]	
O=C(Cn1c(=O)oc2ccccc21)N1CCN(c2ccc(N3CCOCC3)nn2)CC1	29.1 µM [rising, single point]	
Cc1ccc(C(=O)NC(=S)NNC(=O)c2ccccc2O)cc1	10 µM [falling, partial curve, poor fit]	
COc1ccc(NC(=O)Cn2ccc3c(OC)cccc3c2=O)cc1	3.98 µM [rising, full curve, poor fit]	
CC1CCCC(n2c(=S)[nH]c3ccccc3c2=O)C1C (stereo not drawn)	31.6 µM [rising, single point]	
O=C(COC(=O)c1c(F)cccc1F)Nc1ccc(N2CCCCC2)cc1	29.1 µM [rising, single point]	
O=C(Nc1nnc(-c2cccs2)o1)c1cccc(Oc2ccccc2)c1	22.4 µM [falling, partial curve, poor fit]	15.8 µM [falling, single point]
CCOc1ncccc1C(=O)OCC(=O)c1cc(OC)c(OC)c(OC)c1	2.82 µM [rising, partial curve]	
COc1cc(C(=O)OC(C)c2ccc(F)cc2)ccc1OCC(=O)N1CCOCC1 (stereo not drawn)	23.1 µM [rising, single point]	
CCCc1cc(-c2ccc3c(c2)COc2c4ccccc4nn2-3)on1	3.66 µM [rising, partial curve, poor fit]	

Structure (SMILES)	AC50 [1]	AC50 [2]
Cc1ccc(Cl)cc1N1CCN(C(=O)C2CCN(S(C)(=O)=O)CC2)CC1	5.62 µM [falling, single point]	
COc1ccc(C(=O)N2CCN(CCNC(=O)C(=O)Nc3ccc(F)cc3)CC2)cc1	14.1 µM [falling, partial curve, poor fit]	
O=C(CN1CCCCC1)Nc1cccc(Cl)c1Cl	29.1 µM [rising, single point]	
Cc1cccc(-n2ncc3c(N4CC(C)CC(C)C4)ncnc32)c1 (stereo not drawn)	1.3 µM [rising, single point]	
COc1ccc(-n2sc3ccc(F)cc3c2=O)cc1	14.6 µM [falling, partial curve]	
COc1cc(C(=O)N/N=C(\C)Cc2ccccc2)cc(OC)c1OC	10.3 µM [rising, partial curve]	7.31 µM [falling, partial curve]
CC1(C)CC2(CC(c3ccccc3)c3ccc(O)cc3O2)NC(=S)N1 (stereo not drawn)	35.5 µM [falling, single point]	
CCCOc1ccc(C(CC(=O)O)NC(=O)Cc2ccccc2)cc1 (stereo not drawn)	4.47 µM [rising, full curve, poor fit]	
Cc1cc(O)c(-c2cc(C(=O)Nc3cccnc3)[nH]n2)cc1C	6.31 µM [falling, partial curve, poor fit]	
Cc1ccc(C(=O)CCc2ccc(N)cc2)cc1	17.8 µM [rising, single point]	
CN(C)Cc1cc(CN(C)C)c(O)c(CCc2ccccc2)n1	29.1 µM [falling, single point]	
COC(=O)c1sccc1NC(=O)CNC(=O)c1ccccc1	12.6 µM [falling, partial curve]	
N#Cc1c(NC(=O)CSc2nc(N)cc(=O)[nH]2)sc2c1CCCC2	8.91 µM [rising, partial curve, poor fit]	
CC(Cc1cccs1)NC(=O)Nc1ccc(Cl)c(Cl)c1 (stereo not drawn)	9.2 µM [falling, single point]	
COCCOC(=O)c1c(NC(=O)CN2CCOCC2)sc(C(N)=O)c1C	3.66 µM [falling, single point]	
COc1cccc(C(=O)NC2CCCc3c2cnn3-c2ccc(C)c(C)c2)c1OC (stereo not drawn)	1.12 µM [falling, partial curve, poor fit]	
CC(C)=CCC/C(C)=C/C=N/NC(=O)c1cccc([N+](=O)[O-])c1	7.31 µM [rising, partial curve, poor fit]	
COc1ccccc1NCC(=O)N1CCN(S(=O)(=O)c2ccccc2)CC1	20.6 µM [falling, partial curve]	
Cc1cccc(NC(=O)CCc2ccc(S(=O)(=O)NC3CCCCC3)cc2)c1	2.31 µM [falling, full curve]	
O=C(c1ccco1)N1CCN(c2nc3ccccc3n3nnnc23)CC1	1.84 µM [falling, full curve, poor fit]	
CCOC(=O)c1c(N2C(=O)CC(Sc3ccccc3C(=O)O)C2=O)sc(C)c1C (stereo not drawn)	20 µM [falling, single point]	12.6 µM [rising, partial curve, poor fit]
Clc1ccc(-c2nnc(-c3ccccc3)o2)cn1	1.58 µM [rising, full curve, poor fit]	

A stretch from the list above, for reference:
Structure (SMILES)	AC50 [1]	AC50 [2]
COCCOC(=O)c1c(NC(=O)CN2CCOCC2)sc(C(N)=O)c1C	3.66 µM [falling, single point]	
COc1cccc(C(=O)NC2CCCc3c2cnn3-c2ccc(C)c(C)c2)c1OC (stereo not drawn)	1.12 µM [falling, partial curve, poor fit]	

Next results follow.

Structure (SMILES)	AC50 [1]	AC50 [2]
O=P(Cc1ccccc1)(c1ccccc1)c1ccccc1	6.51 µM [falling, single point]	
O=C(Nc1nnc(-c2ccccc2Cl)s1)c1ccccc1F	5.01 µM [falling, partial curve, poor fit]	
COc1ccccc1/C=N/Nc1nccnc1Cl	18.4 µM [falling, single point]	
Cc1ccc(S(=O)(=O)CCSc2nccn2C)cc1	20 µM [rising, single point]	
Cc1ccc2c(c1)sc1nc(=O)n(-c3ccc(Cl)cc3)c(=O)n12	35.5 µM [rising, single point]	
Cc1[nH]n(-c2ccccc2)c(=O)c1C1(C(F)(F)F)C(=O)N(c2ccc(F)cc2)C2=C1C(=O)CC(C)(C)C2 (stereo not drawn)	11.6 µM [falling, partial curve, poor fit]	
O=C(NNC1=NC2(CCCC2)Cc2ccccc21)c1cccnc1	35.5 µM [rising, single point]	
CCOc1ccc(-c2csc(NC(=O)c3cccc(N4C(=O)CCC4=O)c3)n2)cc1	35.5 µM [rising, single point]	
CN(C(=O)c1ccccc1OCc1ccc(Cl)cc1)c1ccccc1	5.62 µM [rising, single point]	
O=C(NCc1cccs1)C1CCC(CNS(=O)(=O)c2cccc3nsnc23)CC1 (stereo not drawn)	29.1 µM [rising, single point]	
CCc1cc(=O)[nH]c(SCC(=O)N2CCOCC2)n1	0.517 µM [rising, partial curve, poor fit]	
CCc1nnc(NC(=O)CSc2nc(C3CCCCC3)nc3ccccc23)s1	0.794 µM [falling, full curve]	
O=C(CN1C(=O)c2ccccc2C1=O)NC1CCC(O)CC1 (stereo not drawn)	29.1 µM [rising, single point]	
CCOc1ccccc1NC(=O)CCc1nnc2ccc(N3CCC(C)CC3)nn12	35.5 µM [falling, single point]	
N=c1n(CCO)c2ccccc2n1Cc1ccccc1Cl	29.1 µM [falling, single point]	
COc1ccc(CCC(=O)Nc2c(C)n(C)n(-c3ccccc3)c2=O)cc1	22.4 µM [rising, partial curve, poor fit]	
COc1ccc2c(c1)-c1nc(NC(=O)c3ccco3)sc1CC2	0.82 µM [rising, full curve, poor fit]	
CCC1=NC(c2ccccc2OC)N(O)C1(C)C (stereo not drawn)	12.6 µM [rising, partial curve, poor fit]	
COc1cc(NC(=O)c2ccc(Cl)cc2)c(OC)cc1NC(=O)CN1CCOCC1	35.5 µM [rising, single point]	
O=C(NC1CC1)C1=C[C@H](C2CCCCC2)C[C@H](OCCCCO)O1	3.98 µM [rising, full curve, poor fit]	
CCOC(=O)C1=CN(Cc2ccco2)S(=O)(=O)N(C)C1CC (stereo not drawn)	0.651 µM [rising, partial curve, poor fit]	

From PubChem BioAssay AID493014 (National Center for Advancing Translational Sciences (NCATS), 2011)
